Measured values as given in publication PMC9257318.
No constants are given. Whether binding was seen depends on the method and setting. Binding seen in cells or lysates may run through a third protein. Some entries that bind do so weakly or less than the wild type. For some of these results: Sequences can lack the tags named with a protein.

Chains of the proteins cited; added tags and fusions are not shown.
UniProt Q13547: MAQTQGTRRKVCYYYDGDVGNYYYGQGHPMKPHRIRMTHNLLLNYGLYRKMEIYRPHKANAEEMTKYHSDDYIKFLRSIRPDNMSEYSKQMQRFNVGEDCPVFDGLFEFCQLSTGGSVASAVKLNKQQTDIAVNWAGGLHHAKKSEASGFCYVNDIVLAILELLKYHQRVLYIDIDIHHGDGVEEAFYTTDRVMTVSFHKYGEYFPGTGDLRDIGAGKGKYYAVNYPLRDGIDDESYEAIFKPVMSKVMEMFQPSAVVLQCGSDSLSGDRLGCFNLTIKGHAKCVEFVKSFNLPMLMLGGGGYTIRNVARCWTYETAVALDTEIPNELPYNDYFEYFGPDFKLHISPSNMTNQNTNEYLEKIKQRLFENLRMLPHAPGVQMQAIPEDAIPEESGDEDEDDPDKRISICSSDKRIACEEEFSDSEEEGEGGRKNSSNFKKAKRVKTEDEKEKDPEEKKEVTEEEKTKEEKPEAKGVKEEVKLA
UniProt Q92769: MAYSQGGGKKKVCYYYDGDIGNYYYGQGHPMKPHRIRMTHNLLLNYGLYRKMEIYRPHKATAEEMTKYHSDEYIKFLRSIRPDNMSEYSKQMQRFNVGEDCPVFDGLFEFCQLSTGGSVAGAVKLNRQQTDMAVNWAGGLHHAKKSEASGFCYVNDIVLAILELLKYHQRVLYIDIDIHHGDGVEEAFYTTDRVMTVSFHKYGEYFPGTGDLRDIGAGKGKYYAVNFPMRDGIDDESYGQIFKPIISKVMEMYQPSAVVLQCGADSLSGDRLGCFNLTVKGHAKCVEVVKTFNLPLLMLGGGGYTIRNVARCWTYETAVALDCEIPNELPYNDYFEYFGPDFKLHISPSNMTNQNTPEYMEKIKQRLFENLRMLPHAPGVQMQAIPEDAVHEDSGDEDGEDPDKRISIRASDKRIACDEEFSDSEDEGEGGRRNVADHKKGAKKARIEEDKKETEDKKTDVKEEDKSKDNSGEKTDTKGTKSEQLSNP

T1: euchromatic histone-lysine N-methyltransferase 2 (EHMT2) (human (endogenous in MCL cells)), Q96KQ7
T1 chain: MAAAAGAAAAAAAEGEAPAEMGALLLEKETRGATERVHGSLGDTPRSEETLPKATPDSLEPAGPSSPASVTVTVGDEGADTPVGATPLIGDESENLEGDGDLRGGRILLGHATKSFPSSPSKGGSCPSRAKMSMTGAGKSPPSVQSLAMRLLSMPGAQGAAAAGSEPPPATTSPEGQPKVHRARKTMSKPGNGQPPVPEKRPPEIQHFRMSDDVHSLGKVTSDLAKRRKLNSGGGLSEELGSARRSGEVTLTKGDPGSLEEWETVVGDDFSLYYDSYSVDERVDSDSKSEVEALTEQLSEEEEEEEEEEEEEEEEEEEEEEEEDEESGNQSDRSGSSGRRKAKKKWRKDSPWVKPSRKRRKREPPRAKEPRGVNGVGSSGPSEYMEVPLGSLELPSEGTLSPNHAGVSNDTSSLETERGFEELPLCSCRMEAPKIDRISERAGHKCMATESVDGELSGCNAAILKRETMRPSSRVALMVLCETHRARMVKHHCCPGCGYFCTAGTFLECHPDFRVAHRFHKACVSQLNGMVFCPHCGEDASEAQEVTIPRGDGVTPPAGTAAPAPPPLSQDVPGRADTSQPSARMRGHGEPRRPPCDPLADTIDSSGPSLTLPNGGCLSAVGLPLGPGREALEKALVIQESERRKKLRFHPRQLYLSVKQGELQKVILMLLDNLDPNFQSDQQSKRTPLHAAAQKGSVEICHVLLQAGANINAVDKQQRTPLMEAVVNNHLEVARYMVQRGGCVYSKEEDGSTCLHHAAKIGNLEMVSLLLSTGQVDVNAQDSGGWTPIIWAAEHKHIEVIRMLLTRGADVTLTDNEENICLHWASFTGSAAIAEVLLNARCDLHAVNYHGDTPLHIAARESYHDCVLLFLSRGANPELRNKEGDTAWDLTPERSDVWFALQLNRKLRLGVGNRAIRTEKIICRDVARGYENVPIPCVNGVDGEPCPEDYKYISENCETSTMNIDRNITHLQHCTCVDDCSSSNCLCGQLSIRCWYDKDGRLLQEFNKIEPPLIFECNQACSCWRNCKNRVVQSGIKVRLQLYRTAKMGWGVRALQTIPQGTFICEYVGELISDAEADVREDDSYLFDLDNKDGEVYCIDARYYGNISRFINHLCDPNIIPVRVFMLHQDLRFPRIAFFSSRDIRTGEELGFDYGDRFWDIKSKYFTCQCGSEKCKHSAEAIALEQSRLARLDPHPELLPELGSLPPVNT


Assays:
[1] = molecular target: euchromatic histone-lysine N-methyltransferase 2 (EHMT2) (human (endogenous in MCL cells)) (UniProt Q96KQ7); assay: co-IP; immunoprecipitation of endogenous EHMT2 from MCL cell lysate with the Pierce Crosslink Immunoprecipitation Kit, antibody overnight at 4 °C, anti-IgG as negative control; eluate analysed by western blotting
[2] = molecular target: T1, euchromatic histone-lysine …; assay: as above; conditions: remark: other sources report otherwise

Row | binding [1] | binding [2] | Molecule
1 | binds |  | HDAC1 (from UniProt Q13547 1-482)
2 | binds |  | HDAC2 (from UniProt Q92769 1-488)
3 | binds |  | ubiquitin-like, containing PHD and RING finger domains, 1 (UHRF1) (protein, UniProt Q96T88 1-793) MWIQVRTMDGRQTHTVDSLSRLTKVEELRRKIQELFHVEPGLQRLFYRGKQMEDGHTLFDYEVRLNDTIQLLVRQSLVLPHSTKERDSELSDTDSGCCLGQSESDKSSTHGEAAAETDSRPADEDMWDETELGLYKVNEYVDARDTNMGAWFEAQVVRVTRKAPSRDEPCSSTSRPALEEDVIYHVKYDDYPENGVVQMNSRDVRARARTIIKWQDLEVGQVVMLNYNPDNPKERGFWYDAEISRKRETRTARELYANVVLGDDSLNDCRIIFVDEVFKIERPGEGSPMVDNPMRRKSGPSCKHCKDDVNRLCRVCACHLCGGRQDPDKQLMCDECDMAFHIYCLDPPLSSVPSEDEWYCPECRNDASEVVLAGERLRESKKKAKMASATSSSQRDWGKGMACVGRTKECTIVPSNHYGPIPGIPVGTMWRFRVQVSESGVHRPHVAGIHGRSNDGAYSLVLAGGYEDDVDHGNFFTYTGSGGRDLSGNKRTAEQSCDQKLTNTNRALALNCFAPINDQEGAEAKDWRSGKPVRVVRNVKGGKNSKYAPAEGNRYDGIYKVVKYWPEKGKSGFLVWRYLLRRDDDEPGPWTKEGKDRIKKLGLTMQYPEGYLEALANREREKENSKREEEEQQEGGFASPRTGKGKWKRKSAGGGPSRAGSPRRTSKKTKVEPYSLTAQQSSLIREDKSNAKLWNEVLASLKDRPASGSPFQLFLSKVEETFQCICCQELVFRPITTVCQHNVCKDCLDRSFRAQVFSCPACRYDLGRSYAMQVNQPLQTVLNQLFPGYGNGR
4 |  | no binding | HDAC3, O15379 1-428 (protein) MAKTVAYFYDPDVGNFHYGAGHPMKPHRLALTHSLVLHYGLYKKMIVFKPYQASQHDMCRFHSEDYIDFLQRVSPTNMQGFTKSLNAFNVGDDCPVFPGLFEFCSRYTGASLQGATQLNNKICDIAINWAGGLHHAKKFEASGFCYVNDIVIGILELLKYHPRVLYIDIDIHHGDGVQEAFYLTDRVMTVSFHKYGNYFFPGTGDMYEVGAESGRYYCLNVPLRDGIDDQSYKHLFQPVINQVVDFYQPTCIVLQCGADSLGCDRLGCFNLSIRGHGECVEYVKSFNIPLLVLGGGGYTVRNVARCWTYETSLLVEEAISEELPYSEYFEYFAPDFTLHPDVSTRIENQNSRQYLDQIRQTIFENLKMLNHAPSVQIHDVPADLLTYDRTDEADAEERGPEENYSRPEAPNEFYDGDHDNDKESDVEI
